# Experimental data reported in publication PMC12492975.
# Chains of the proteins cited; added tags and fusions are not shown.
# UniProt Q709C8: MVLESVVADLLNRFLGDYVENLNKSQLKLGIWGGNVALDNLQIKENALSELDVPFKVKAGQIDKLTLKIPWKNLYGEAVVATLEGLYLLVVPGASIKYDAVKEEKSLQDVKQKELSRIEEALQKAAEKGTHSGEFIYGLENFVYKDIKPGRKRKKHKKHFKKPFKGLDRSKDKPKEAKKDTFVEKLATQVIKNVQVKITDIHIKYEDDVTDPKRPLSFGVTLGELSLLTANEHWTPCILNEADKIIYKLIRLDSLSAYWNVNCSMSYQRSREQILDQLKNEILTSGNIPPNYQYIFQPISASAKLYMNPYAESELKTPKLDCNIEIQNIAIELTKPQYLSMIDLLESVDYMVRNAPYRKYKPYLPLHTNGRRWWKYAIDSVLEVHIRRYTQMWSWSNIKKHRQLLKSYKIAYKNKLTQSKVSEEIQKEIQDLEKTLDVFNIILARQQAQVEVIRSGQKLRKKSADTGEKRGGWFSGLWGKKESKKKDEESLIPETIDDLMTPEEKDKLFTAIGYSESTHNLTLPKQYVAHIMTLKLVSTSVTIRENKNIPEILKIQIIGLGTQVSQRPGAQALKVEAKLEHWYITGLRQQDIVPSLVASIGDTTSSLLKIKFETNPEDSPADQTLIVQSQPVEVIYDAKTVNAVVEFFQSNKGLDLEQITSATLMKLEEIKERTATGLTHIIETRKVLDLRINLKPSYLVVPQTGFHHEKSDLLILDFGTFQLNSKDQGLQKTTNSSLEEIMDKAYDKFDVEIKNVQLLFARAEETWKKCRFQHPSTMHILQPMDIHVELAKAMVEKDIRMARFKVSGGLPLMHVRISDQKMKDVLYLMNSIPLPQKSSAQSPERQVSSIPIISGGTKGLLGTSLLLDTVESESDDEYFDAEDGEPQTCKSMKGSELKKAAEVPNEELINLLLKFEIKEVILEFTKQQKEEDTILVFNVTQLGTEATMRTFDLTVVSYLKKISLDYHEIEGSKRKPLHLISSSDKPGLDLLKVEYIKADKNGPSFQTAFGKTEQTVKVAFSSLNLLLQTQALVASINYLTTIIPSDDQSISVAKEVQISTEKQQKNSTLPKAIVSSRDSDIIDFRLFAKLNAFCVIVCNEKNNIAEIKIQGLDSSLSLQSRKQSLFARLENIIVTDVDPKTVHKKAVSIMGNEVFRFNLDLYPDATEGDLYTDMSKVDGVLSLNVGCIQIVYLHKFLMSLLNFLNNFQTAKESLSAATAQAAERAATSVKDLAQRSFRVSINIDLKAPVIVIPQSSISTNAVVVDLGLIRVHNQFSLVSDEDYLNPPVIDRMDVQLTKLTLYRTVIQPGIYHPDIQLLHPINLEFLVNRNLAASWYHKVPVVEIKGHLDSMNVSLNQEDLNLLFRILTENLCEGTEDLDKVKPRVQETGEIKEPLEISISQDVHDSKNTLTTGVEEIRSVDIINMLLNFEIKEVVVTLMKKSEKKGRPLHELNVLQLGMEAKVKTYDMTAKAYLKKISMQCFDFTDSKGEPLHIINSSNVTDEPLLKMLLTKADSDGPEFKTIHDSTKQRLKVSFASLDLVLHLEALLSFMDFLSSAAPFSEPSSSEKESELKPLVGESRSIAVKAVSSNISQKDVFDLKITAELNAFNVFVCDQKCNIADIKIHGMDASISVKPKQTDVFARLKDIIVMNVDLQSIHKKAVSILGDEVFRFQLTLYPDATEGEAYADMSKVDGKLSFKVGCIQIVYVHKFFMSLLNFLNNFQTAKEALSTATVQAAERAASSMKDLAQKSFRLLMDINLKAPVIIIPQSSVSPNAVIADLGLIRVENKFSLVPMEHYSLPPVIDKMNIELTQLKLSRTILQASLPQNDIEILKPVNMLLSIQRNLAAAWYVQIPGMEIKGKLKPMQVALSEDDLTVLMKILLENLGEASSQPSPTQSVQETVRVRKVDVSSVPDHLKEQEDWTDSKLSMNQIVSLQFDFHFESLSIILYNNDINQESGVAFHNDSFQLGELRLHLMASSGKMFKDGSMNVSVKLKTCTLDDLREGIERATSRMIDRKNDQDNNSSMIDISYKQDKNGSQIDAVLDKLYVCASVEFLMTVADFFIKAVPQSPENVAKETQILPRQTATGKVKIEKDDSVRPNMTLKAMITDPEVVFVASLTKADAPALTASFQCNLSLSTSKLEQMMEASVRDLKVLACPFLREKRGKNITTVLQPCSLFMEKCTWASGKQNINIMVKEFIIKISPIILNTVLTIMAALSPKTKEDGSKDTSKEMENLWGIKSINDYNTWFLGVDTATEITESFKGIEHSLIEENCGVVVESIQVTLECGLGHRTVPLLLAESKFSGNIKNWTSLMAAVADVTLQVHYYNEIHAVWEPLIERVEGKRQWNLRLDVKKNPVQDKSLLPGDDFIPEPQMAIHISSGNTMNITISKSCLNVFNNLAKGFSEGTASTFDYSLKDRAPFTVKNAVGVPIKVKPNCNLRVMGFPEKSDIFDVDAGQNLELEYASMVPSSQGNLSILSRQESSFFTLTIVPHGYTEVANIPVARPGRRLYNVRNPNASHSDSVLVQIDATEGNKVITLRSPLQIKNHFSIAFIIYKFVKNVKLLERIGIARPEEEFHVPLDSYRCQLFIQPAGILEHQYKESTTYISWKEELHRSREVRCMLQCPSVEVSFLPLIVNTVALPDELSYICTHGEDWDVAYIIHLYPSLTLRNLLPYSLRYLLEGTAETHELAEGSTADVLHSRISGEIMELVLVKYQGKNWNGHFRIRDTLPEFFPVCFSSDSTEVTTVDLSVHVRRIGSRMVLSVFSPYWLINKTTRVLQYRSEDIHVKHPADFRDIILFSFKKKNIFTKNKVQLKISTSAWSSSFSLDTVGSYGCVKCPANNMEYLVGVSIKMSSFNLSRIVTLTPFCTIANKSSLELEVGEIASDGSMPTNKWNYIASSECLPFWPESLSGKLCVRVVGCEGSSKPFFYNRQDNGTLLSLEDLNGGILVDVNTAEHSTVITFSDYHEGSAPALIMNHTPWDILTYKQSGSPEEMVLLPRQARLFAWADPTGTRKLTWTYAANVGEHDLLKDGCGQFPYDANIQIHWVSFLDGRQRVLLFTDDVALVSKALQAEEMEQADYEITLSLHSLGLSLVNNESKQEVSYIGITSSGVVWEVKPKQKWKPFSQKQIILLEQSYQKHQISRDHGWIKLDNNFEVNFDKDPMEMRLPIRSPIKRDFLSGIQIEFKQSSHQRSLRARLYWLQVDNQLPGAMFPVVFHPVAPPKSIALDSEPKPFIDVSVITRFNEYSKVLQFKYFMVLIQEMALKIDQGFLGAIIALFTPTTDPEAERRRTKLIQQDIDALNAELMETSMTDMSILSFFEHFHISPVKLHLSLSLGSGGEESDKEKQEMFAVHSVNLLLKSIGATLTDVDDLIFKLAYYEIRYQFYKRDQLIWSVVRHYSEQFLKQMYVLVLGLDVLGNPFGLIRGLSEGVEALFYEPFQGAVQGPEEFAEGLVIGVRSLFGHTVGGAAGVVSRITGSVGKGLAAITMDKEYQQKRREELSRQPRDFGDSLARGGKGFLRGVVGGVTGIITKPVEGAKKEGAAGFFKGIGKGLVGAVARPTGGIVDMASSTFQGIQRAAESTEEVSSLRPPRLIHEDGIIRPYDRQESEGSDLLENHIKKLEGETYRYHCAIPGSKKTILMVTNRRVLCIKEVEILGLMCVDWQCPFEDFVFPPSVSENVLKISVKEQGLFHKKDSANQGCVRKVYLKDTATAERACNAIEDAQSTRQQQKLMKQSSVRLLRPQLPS
# These are yes or no findings as the source states them, for the method shown. In cells and extracts the contact can be indirect.
# B1: SopD2-RFP (protein, UniProt Q8ZQC8 1-319)
# chain: MPVTLSFGNRHNYEINHSRLARLMSPDKEEALYMGVWDRFKDCFRTHKKQEVLEVLYTLIHGCERENQAELNVDITGMEKIHAFTQLKEYANPSQQDRFVMRFDMNQTQVLFEIDGKVIDKCNLHRLLNVSENCIFKVMEEDEEELFLKICIKYGEKISRYPELLEGFANKLKDAVNEDDDVKDEVYKLMRSGEDRKMECVEWNGTLTEEEKNKLRCLQMGSFNITTQFFKIGYWELEGEVLFDMVHPTLSYLLQAYKPSLSSDLIETNTMLFSDVLNKDYDDYQNNKREIDAILRRIYRSHNNTLFISEKSSCRNMLI
# Tests used:
# [1] = molecular target: VPS13C^mClover3 (UniProt Q709C8); assay: co-IP
# [2] = molecular target: VPS13C (human (endogenous in HeLa)) (UniProt Q709C8); assay: co-IP
binder,measurement,setting,value
B1,binding,[1],no binding
same,binding,[2],no binding
